These are yes or no findings as the source states them, for the method shown. Some binding calls cover weakened binding; strength is not graded here.

By UniProt entry, the sequences of proteins in these tests, tags left out. Where a name states a change or a piece, a line headed by the entry shows the natural chain unless it says otherwise.
UniProt O43353: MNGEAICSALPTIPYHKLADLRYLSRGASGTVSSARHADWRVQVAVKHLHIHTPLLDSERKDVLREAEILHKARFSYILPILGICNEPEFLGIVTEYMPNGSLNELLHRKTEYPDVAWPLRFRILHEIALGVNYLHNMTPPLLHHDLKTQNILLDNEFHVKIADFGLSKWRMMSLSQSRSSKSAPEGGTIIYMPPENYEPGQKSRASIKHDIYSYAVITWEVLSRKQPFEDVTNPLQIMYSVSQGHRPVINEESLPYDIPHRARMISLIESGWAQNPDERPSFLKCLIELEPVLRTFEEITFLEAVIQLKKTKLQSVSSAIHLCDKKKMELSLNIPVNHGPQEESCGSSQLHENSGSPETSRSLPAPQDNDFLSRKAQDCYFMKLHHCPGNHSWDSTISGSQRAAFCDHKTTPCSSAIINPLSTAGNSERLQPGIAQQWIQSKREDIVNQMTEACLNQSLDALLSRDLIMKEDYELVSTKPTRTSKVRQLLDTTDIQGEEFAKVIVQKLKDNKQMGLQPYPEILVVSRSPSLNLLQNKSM

This experiment addresses B1 protein (Homo sapiens (Human)) (UniProt O43353). The experiment is described as follows: yeast two-hybrid, LacZ; binder is the DNA-binding hybrid, target the activation hybrid.

B1: TRAF1 (protein, UniProt Q13077 1-416, looked up)
chain: MASSSGSSPRPAPDENEFPFGCPPTVCQDPKEPRALCCAGCLSENPRNGEDQICPKCRGEDLQSISPGSRLRTQEKAHPEVAEAGIGCPFAGVGCSFKGSPQSVQEHEVTSQTSHLNLLLGFMKQWKARLGCGLESGPMALEQNLSDLQLQAAVEVAGDLEVDCYRAPCSESQEELALQHFMKEKLLAELEGKLRVFENIVAVLNKEVEASHLALATSIHQSQLDRERILSLEQRVVELQQTLAQKDQALGKLEQSLRLMEEASFDGTFLWKITNVTRRCHESACGRTVSLFSPAFYTAKYGYKLCLRLYLNGDGTGKRTHLSLFIVIMRGEYDALLPWPFRNKVTFMLLDQNNREHAIDAFRPDLSSASFQRPQSETNVASGCPLFFPLSKLQSPKHAYVKDDTMFLKCIVETST
Take B1: the binding result is “binds”.
